{
  "sequences": {"note": "Sequences of proteins named here, by UniProt entry; tags and fusion partners are left off.", "UniProt Q0JBA9, entry or part of it": "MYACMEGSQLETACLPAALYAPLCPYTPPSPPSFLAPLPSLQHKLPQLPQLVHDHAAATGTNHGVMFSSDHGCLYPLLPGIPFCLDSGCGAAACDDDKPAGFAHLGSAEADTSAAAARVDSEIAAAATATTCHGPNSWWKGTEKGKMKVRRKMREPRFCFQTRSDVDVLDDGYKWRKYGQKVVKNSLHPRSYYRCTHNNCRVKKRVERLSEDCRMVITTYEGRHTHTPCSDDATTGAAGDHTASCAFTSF"},
  "source": "paper PMC7819943",
  "about": "“Rice protein-binding microarrays: a tool to detect cis-acting elements near promoter regions in rice”",
  "note": "This is one part of the list.",
  "data": [
    {"molecular_target": "OsWRKY34 (Oryza sativa, UniProt Q0JBA9 1-250)", "assay": "protein-binding microarray (RPBM); PBS, 2% BSA, 51.3 ng/ul salmon testes DNA, 50 uM zinc acetate, 200 nM TF, 25 C, 1 h; high values mean tight binding", "details": "protein: recombinant; tags: N-terminal polyhistidine and DsRed monomer fusion (pET32a); label: CyDye5-dUTP incorporated in the synthesized complementary strand; 3' TTTTT single-stranded linker to array surface; dsDNA, one strand shown", "procedure,_shortened": "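Transcription factors, each fused N-terminally to a polyhistidine tag and DsRed, were expressed in E. coli BL21-CodonPlus and purified on Ni–NTA. A custom Agilent array was made double-stranded by primer extension with Cy5-dUTP and blocked with 2% BSA. It was incubated with 200 nM protein in PBS, 2% BSA, salmon testes DNA and 50 µM zinc acetate at 25 °C for 1 h, then washed. The binding signal is per-feature fluorescence intensity (arbitrary units) read on an Axon 4000B scanner.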", "values": [
      {"sequence": "TTATGGTTGTTTTCTTCGGTTCTTTGTTTTTTTAAAAAAACGGAGTCACCTAGTGCAG", "binding signal": "11600 fluorescence intensity (a.u.)"},
      {"sequence": "GATACGGCTACACTTTTTTCTCCCTTCCATTCCATTCCATCGGAGTCACCTAGTGCAG", "binding signal": "10200 fluorescence intensity (a.u.)"},
      {"sequence": "TCTACCCGCTCCACGCCGCCTCGTCATCCCTTCATTACTACGGAGTCACCTAGTGCAG", "binding signal": "9410 fluorescence intensity (a.u.)"},
      {"sequence": "GCTTTCCATTTGCCAGCCGGAGTGCTCTCTATCGCCGAGGCGGAGTCACCTAGTGCAG", "binding signal": "10200 fluorescence intensity (a.u.)"},
      {"sequence": "TTGGTCTGTTTCTTGGGTTGGCATTATTGCAAGATTTGGACGGAGTCACCTAGTGCAG", "binding signal": "10400 fluorescence intensity (a.u.)"},
      {"sequence": "GTCAGCCCCGAGCTTCATCGCTGTCGCGCATCTTGTCTCTCGGAGTCACCTAGTGCAG", "binding signal": "8820 fluorescence intensity (a.u.)"},
      {"sequence": "CATCCACTATATAGTAGTGTCACCACCTCTCGTTCTCGTTCGGAGTCACCTAGTGCAG", "binding signal": "9510 fluorescence intensity (a.u.)"},
      {"sequence": "GATGGGAAATGGGAGGTGGATTGGATTGGATGGGAACTGGCGGAGTCACCTAGTGCAG", "binding signal": "8400 fluorescence intensity (a.u.)"},
      {"sequence": "TCGACCAGCCGCAATTTGCTGTAGTTTTTAAACTTCATGTCGGAGTCACCTAGTGCAG", "binding signal": "8050 fluorescence intensity (a.u.)"},
      {"sequence": "CATAGTCGTCTTCCTCGATCAATCCGCTCCGCTCCGTCTTCGGAGTCACCTAGTGCAG", "binding signal": "8440 fluorescence intensity (a.u.)"},
      {"sequence": "ATACTTAATTGTGTTTCATGATGAATCGTTGACCGTTGAGCGGAGTCACCTAGTGCAG", "binding signal": "10100 fluorescence intensity (a.u.)"},
      {"sequence": "ATCACTACGCTCCTTGCTTTTCTGCGCGATATGATTCTGACGGAGTCACCTAGTGCAG", "binding signal": "12900 fluorescence intensity (a.u.)"},
      {"sequence": "GAACTCTTTGCATTATTCTTGGAAGGCCCTATATACAATTCGGAGTCACCTAGTGCAG", "binding signal": "10100 fluorescence intensity (a.u.)"},
      {"sequence": "ATTTCATTCATATGCATTAAAACTAGCTTGGAATAATTTTCGGAGTCACCTAGTGCAG", "binding signal": "8120 fluorescence intensity (a.u.)"},
      {"sequence": "ATACTCCCTCCGTCCCCAAGGTTGGCTTTTTTTTTTTGAGCGGAGTCACCTAGTGCAG", "binding signal": "9810 fluorescence intensity (a.u.)"},
      {"sequence": "TAGCACTAAAACGAGAGGCCTTTTGATTTAGATTTTGCCACGGAGTCACCTAGTGCAG", "binding signal": "21900 fluorescence intensity (a.u.)"},
      {"sequence": "TATTGTTGGGTATTTGGTTTTCTCTCCACGCTTGTATATACGGAGTCACCTAGTGCAG", "binding signal": "10100 fluorescence intensity (a.u.)"},
      {"sequence": "AGTCCCATGTGAGTTATCCATATAAACCTAAGTCTGCTCACGGAGTCACCTAGTGCAG", "binding signal": "8400 fluorescence intensity (a.u.)"},
      {"sequence": "ATTCTCTTATTTTTCCTCTTTATTAACCGATTTGGTTCAGCGGAGTCACCTAGTGCAG", "binding signal": "8640 fluorescence intensity (a.u.)"},
      {"sequence": "TCCTCCTCCGTCCATCGCAGCTACTGCCTCCTTCTTCTTCCGGAGTCACCTAGTGCAG", "binding signal": "8030 fluorescence intensity (a.u.)"},
      {"sequence": "ACAATCCGATCTTATTTGCTCTAGCTTTGTCTCTCTCCAACGGAGTCACCTAGTGCAG", "binding signal": "9810 fluorescence intensity (a.u.)"},
      {"sequence": "GCCGCCTCCGCCATCGCCTCCGCCACCTCCACCATCGTCGCGGAGTCACCTAGTGCAG", "binding signal": "8960 fluorescence intensity (a.u.)"},
      {"sequence": "TGAGTTTCTATTTGGTTTGGTGAGAATGCATTTCATATCTCGGAGTCACCTAGTGCAG", "binding signal": "9580 fluorescence intensity (a.u.)"},
      {"sequence": "GCTGCCCCGCGCGCGCCAGGCGCCACCCTCGTCTCGTCGTCGGAGTCACCTAGTGCAG", "binding signal": "8810 fluorescence intensity (a.u.)"},
      {"sequence": "TGTTGTGCTTGCTGATGTGTTGGAAATTCCACCCTTTTGTCGGAGTCACCTAGTGCAG", "binding signal": "8490 fluorescence intensity (a.u.)"},
      {"sequence": "TTCATTCCTTTAGCCATGCTGCTGCGTTTATTTTGCCACTCGGAGTCACCTAGTGCAG", "binding signal": "10400 fluorescence intensity (a.u.)"},
      {"sequence": "TACTCGCGCCCACGGCTTTCACTCGCTCCGTCGGTTAAAACGGAGTCACCTAGTGCAG", "binding signal": "8670 fluorescence intensity (a.u.)"},
      {"sequence": "CCCTTGGCCTATATACTCTCTCTCTCTCTTCTCGCCCCACCGGAGTCACCTAGTGCAG", "binding signal": "8620 fluorescence intensity (a.u.)"},
      {"sequence": "AAATGGTCTAACACTTGATGATGTTTCACTTCCCCAGTATCGGAGTCACCTAGTGCAG", "binding signal": "10600 fluorescence intensity (a.u.)"},
      {"sequence": "TACAACTGAGTTCATTTCGCCGTCAATTCGCATCAATTTTCGGAGTCACCTAGTGCAG", "binding signal": "8610 fluorescence intensity (a.u.)"},
      {"sequence": "CCCGTTCTTTCTGTATGATGATCAATTTTTTAGACTAAACCGGAGTCACCTAGTGCAG", "binding signal": "8720 fluorescence intensity (a.u.)"},
      {"sequence": "CTGTTTTTTTTTTCTTTTTTTTCTTTTTTTCTTTTTTCTACGGAGTCACCTAGTGCAG", "binding signal": "9590 fluorescence intensity (a.u.)"},
      {"sequence": "CTTCGCTTCGCTGGCCCTCTGCTTTGTTCTTGACCCTTGGCGGAGTCACCTAGTGCAG", "binding signal": "9420 fluorescence intensity (a.u.)"},
      {"sequence": "GTTTCACAATGTAAGTCATTCTAGCATTTTTCACATTCATCGGAGTCACCTAGTGCAG", "binding signal": "9340 fluorescence intensity (a.u.)"},
      {"sequence": "GTACCCATAATCTCCACAAGTCTTTATCTCTCCTCAAATTCGGAGTCACCTAGTGCAG", "binding signal": "8360 fluorescence intensity (a.u.)"},
      {"sequence": "TTGTGCATGTGTGGGAAGTGGTACTCTTTTTCTTAGCATTCGGAGTCACCTAGTGCAG", "binding signal": "8810 fluorescence intensity (a.u.)"},
      {"sequence": "TCGTCGTCGACTCGTCGTGGCCGCCGGCAACTCACGCCCACGGAGTCACCTAGTGCAG", "binding signal": "8150 fluorescence intensity (a.u.)"},
      {"sequence": "CTGCTACAATCGCCATAATTCTCTAGTTTCGTACACCTGACGGAGTCACCTAGTGCAG", "binding signal": "8320 fluorescence intensity (a.u.)"},
      {"sequence": "AGATCCACCATGCCACCACCTGCTGCTCCAAGCCGTCGTTCGGAGTCACCTAGTGCAG", "binding signal": "8360 fluorescence intensity (a.u.)"},
      {"sequence": "TCTCTCTCTTCTTCGCGTCGATTTCGTGCACTTCAGTTTCCGGAGTCACCTAGTGCAG", "binding signal": "14500 fluorescence intensity (a.u.)"},
      {"sequence": "CAGTTTGGGAGGGCTGATACTGCATGCAGTCATCAAAATACGGAGTCACCTAGTGCAG", "binding signal": "10600 fluorescence intensity (a.u.)"},
      {"sequence": "GTTGTCTCATGTCTAGCCTAGATCTGTACTTATGAATTTTCGGAGTCACCTAGTGCAG", "binding signal": "11500 fluorescence intensity (a.u.)"}
    ]}
  ]
}
